# Measured data: PubChem BioAssay AID504793 (Drosophila RNAi Screening Center, 2011)
# Assay: 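Whole-genome screen for parts of the DNA damage checkpoint at G2/M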 (primary screen)
# System: Drosophila S2R+ cells
# Reagents: long dsRNA against Drosophila genes, about 0.25 µg dsRNA per well
# Time to read-out: 4 days of dsRNA, then 4 hours of drug before read-out
# Conditions: doxorubicin 0.5 µM for 4 hours to cause double-strand breaks, in cells also given a low, harmless dose of dsRNA against nbs to sensitise the assay
# Read-out: 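Mitotic index as the number of phospho-histone H3-positive cells in each well following doxorubicin, given as raw counts without normalisation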
# Reading the numbers: mitotic cells: higher = more cells in mitosis, weaker G2 arrest
# Hit rule: 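Genes are called active only when high mitotic counts were reproduced with independent dsRNAs and mitosis was checked for delay without damage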
# Calls: active = confirmed in follow-up tests; inactive = not confirmed
# The screen tested about 23,000 reagents; this is a random part of those that have a named target and a result. In the full data, 62 (0.27%) got an active call. 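Calls come from follow-up tests whose scores are not deposited, so confirmed genes may have low counts here; counts are not normalised per plate.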 Raw values are not corrected between plates. A plus sign joins genes that one reagent is predicted to hit. Reagent sequences are not shown.
The first 3 records as a preview:
target,amplicon,"mitotic cells, replicate 1",activity call
Frq1,DRSC19961,11,inactive
Frq1,DRSC25439,8,inactive
CG9759,DRSC16558,4,inactive

The list itself, repeating the preview:
target,amplicon,"mitotic cells, replicate 1",activity call
Frq1,DRSC19961,11,inactive
Frq1,DRSC25439,8,inactive
CG9759,DRSC16558,4,inactive
CG9759,DRSC26341,10,inactive
RabX4,DRSC22189,9,inactive
RabX4,DRSC26360,6,inactive
tsl,DRSC17090,13,inactive
LManIII,DRSC03221,2,inactive
LManIII,DRSC29001,7,inactive
CG11986,DRSC14461,3,inactive
CG11986,DRSC24504,5,inactive
CheB38c,DRSC02389,8,inactive
Grl58a,DRSC04145,5,inactive
CG15209,DRSC19655,16,inactive
lectin-37Da,DRSC03278,10,inactive
lectin-37Da,DRSC22729,14,inactive
CG1161,DRSC24956,10,inactive
NP15.6,DRSC16756,13,inactive
NP15.6,DRSC26741,7,inactive
CG12912,DRSC25772,4,inactive
hpRNA:CR33940,DRSC39118,7,inactive
CG4650,DRSC02767,6,inactive
Pten,DRSC03402,8,inactive
Pten,DRSC29950,10,inactive
cocoon,DRSC10916,5,inactive
cocoon,DRSC28623,5,inactive
CG13949,DRSC00367,6,inactive
CG13949,DRSC25702,5,inactive
CG13473,DRSC10017,5,inactive
CG1946,DRSC06804,8,inactive
CG1946,DRSC28499,6,inactive
CG42512 + CG32573,DRSC19532,20,inactive
CG42512 + CG32573,DRSC19906,9,inactive
CG42512 + CG32573,DRSC22782,6,inactive
GlyT,DRSC04512,3,inactive
GlyT,DRSC26130,8,inactive
CG31548,DRSC22640,4,inactive
CG31548,DRSC25763,3,inactive
CG8568,DRSC20113,4,inactive
CG8568,DRSC26687,7,inactive
CG16957,DRSC02545,2,inactive
FASN2,DRSC00167,4,inactive
FASN2,DRSC00610,5,inactive
CG14417,DRSC18638,10,inactive
Desat1,DRSC16668,3,inactive
Desat1,DRSC23578,6,inactive
